Assay [1] addresses wild-type TRIM28 (endogenous, K562 cells) (human (endogenous in K562)) (UniProt Q13263). The assay can be described thus: affinity purification with mass spectrometry; IP of endogenous TRIM28 or TRIM28-K304Q from K562 cells with anti-TRIM28-N-conjugated protein A beads; washed, eluted with the antibody-generating peptide; MS (LTQ-Orbitrap Velos, Mascot).
The target in assay [2] is T1, TRIM28-K304Q (endogenous, knock-in K562 clone Q1) (human (endogenous in K562)) (UniProt Q13263).
T1 sequence: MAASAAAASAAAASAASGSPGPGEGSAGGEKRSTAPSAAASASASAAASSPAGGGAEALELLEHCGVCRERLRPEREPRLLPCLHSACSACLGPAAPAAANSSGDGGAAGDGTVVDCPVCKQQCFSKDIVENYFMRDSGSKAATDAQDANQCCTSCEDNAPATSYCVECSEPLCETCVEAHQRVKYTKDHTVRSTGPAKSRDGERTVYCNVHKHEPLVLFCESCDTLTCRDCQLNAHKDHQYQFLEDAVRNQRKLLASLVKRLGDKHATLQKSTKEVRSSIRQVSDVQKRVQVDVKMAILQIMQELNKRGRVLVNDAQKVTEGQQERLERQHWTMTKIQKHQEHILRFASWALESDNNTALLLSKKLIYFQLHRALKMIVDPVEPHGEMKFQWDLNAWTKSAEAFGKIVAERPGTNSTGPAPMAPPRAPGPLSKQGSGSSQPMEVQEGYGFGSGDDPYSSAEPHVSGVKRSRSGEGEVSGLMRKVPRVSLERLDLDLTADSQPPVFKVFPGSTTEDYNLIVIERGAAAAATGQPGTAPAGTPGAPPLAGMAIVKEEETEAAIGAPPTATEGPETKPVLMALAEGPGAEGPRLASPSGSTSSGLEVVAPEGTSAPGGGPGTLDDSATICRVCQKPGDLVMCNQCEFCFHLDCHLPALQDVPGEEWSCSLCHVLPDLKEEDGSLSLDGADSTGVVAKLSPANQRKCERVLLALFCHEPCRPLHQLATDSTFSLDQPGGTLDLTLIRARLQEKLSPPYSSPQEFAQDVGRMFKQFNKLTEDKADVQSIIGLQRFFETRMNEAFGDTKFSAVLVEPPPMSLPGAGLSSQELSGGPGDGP
Described as above.

Sequences of proteins named here, by UniProt entry; tags and fusion partners are left off.
UniProt Q969W8: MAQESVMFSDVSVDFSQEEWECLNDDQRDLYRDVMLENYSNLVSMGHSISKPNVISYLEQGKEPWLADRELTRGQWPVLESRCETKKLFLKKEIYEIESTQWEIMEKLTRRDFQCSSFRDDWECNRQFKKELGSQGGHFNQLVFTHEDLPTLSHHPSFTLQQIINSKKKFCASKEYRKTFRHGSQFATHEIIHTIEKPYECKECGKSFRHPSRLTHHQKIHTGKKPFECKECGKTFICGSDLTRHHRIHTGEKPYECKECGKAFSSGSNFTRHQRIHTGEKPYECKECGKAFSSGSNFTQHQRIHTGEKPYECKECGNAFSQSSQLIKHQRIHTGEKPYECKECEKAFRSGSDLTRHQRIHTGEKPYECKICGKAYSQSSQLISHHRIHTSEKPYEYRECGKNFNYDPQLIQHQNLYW
UniProt Q96SQ5: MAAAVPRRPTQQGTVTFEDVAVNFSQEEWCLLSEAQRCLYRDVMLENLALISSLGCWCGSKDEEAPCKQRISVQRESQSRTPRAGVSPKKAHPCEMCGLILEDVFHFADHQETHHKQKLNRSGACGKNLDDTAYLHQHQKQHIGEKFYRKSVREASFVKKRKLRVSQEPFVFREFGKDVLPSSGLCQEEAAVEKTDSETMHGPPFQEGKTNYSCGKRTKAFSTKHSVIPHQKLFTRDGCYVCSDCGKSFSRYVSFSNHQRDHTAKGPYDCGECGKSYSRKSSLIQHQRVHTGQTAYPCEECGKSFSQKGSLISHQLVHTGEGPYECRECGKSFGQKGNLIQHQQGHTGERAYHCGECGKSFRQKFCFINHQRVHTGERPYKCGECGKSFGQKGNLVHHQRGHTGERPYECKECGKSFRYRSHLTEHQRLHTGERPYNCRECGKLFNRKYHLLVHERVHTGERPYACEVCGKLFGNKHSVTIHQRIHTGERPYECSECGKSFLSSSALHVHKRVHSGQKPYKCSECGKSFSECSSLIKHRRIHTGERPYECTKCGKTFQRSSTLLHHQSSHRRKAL
UniProt Q7L945: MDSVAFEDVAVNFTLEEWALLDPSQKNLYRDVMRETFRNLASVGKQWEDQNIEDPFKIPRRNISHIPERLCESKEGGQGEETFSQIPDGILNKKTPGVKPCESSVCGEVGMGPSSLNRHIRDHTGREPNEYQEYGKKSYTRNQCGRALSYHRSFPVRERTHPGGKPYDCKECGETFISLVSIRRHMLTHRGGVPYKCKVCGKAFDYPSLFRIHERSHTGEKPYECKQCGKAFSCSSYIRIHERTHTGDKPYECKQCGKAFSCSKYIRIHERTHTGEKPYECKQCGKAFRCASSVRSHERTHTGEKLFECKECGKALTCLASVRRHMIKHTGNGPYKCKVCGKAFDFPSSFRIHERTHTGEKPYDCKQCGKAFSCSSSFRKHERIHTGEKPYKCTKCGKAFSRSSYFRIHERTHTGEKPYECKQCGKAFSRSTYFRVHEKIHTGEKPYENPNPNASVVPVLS
UniProt Q96BR6: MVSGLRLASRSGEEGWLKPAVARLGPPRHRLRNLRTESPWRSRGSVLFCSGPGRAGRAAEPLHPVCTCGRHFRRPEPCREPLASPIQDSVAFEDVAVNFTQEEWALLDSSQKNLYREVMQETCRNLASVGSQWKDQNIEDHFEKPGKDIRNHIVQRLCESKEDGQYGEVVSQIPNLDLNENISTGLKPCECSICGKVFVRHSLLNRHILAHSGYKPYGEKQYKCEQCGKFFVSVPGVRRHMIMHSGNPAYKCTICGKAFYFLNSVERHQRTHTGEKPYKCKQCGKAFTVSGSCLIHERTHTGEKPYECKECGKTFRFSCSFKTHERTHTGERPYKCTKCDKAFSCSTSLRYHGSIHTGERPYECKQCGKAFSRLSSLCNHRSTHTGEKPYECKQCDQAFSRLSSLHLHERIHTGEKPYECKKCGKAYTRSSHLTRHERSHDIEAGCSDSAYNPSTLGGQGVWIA
UniProt Q9BS34: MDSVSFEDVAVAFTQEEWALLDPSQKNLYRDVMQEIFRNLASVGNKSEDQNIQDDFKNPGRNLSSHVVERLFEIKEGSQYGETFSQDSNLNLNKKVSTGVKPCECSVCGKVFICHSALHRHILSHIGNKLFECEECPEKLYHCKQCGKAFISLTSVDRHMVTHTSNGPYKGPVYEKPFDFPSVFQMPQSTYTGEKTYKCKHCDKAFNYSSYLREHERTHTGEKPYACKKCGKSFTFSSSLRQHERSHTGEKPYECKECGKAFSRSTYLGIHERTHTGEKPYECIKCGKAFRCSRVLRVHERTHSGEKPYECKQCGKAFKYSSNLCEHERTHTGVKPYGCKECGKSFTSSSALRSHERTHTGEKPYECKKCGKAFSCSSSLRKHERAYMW
UniProt Q8NEM1: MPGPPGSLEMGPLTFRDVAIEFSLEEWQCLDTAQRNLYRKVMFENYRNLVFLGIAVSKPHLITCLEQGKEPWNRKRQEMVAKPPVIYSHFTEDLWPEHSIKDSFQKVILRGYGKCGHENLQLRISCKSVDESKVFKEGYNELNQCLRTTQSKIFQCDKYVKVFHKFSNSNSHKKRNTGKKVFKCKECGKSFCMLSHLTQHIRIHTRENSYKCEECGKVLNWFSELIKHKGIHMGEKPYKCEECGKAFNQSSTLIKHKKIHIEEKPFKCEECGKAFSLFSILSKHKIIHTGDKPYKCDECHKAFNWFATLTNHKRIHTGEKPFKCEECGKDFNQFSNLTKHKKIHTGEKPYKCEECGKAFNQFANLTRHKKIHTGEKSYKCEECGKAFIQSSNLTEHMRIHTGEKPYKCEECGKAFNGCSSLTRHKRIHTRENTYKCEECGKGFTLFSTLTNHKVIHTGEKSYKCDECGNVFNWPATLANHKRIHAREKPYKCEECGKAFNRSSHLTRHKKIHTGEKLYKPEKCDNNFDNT
UniProt P0C7X2: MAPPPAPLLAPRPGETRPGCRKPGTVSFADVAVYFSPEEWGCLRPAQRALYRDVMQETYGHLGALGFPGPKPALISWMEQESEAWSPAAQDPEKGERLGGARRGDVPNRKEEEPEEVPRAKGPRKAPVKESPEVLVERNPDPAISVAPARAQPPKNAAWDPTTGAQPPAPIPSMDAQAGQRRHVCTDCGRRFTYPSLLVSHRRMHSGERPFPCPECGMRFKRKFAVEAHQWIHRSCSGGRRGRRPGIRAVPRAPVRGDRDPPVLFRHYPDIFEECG
UniProt Q96CS4: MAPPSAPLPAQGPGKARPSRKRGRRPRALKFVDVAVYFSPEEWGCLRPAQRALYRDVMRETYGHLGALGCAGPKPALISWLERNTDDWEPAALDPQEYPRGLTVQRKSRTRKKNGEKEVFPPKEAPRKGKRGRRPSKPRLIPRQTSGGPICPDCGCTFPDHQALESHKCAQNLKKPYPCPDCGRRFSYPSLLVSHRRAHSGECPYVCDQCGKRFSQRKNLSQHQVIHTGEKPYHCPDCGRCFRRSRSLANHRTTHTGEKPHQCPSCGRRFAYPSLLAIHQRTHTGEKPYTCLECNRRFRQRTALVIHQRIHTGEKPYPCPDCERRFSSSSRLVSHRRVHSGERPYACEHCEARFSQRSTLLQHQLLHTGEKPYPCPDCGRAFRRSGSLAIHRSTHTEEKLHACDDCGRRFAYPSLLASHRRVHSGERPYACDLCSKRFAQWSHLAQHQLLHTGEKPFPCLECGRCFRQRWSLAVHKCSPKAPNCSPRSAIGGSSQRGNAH
UniProt A8MTY0: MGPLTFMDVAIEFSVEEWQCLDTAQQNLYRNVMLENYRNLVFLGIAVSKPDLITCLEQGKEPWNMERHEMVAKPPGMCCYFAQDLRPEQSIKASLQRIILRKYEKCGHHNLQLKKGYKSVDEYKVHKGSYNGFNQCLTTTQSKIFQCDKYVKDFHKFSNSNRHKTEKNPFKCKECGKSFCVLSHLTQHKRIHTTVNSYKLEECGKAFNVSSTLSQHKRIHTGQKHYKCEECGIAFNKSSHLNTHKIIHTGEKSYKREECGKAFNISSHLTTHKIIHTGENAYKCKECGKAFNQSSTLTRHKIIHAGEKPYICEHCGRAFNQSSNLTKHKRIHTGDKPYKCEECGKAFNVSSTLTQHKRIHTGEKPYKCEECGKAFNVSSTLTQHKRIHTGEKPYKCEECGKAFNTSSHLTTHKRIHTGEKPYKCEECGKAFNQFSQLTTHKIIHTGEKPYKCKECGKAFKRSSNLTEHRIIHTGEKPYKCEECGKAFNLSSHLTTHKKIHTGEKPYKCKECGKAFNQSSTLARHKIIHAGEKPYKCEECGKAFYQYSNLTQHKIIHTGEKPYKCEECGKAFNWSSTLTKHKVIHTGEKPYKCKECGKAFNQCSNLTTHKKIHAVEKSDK
UniProt Q8NE65: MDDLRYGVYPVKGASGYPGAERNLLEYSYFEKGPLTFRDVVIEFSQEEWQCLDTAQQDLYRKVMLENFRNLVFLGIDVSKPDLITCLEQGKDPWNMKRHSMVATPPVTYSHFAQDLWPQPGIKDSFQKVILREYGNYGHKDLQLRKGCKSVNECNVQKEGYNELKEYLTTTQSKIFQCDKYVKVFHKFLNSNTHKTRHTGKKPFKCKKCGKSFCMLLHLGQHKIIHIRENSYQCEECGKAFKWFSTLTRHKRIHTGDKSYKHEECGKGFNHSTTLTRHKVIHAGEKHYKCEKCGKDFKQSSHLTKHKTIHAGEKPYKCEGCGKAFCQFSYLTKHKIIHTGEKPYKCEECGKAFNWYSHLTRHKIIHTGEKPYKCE
UniProt Q96H86: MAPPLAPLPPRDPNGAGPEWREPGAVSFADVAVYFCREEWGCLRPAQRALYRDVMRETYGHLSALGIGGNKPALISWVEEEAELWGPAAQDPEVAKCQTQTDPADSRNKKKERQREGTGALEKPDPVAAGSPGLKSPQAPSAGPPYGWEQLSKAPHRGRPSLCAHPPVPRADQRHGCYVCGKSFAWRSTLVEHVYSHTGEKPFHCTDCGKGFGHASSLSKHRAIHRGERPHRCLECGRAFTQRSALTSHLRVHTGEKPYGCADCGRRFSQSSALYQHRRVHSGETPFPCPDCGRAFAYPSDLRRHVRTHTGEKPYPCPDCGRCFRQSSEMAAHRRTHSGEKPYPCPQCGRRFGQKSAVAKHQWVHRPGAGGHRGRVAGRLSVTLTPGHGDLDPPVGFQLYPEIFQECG
UniProt Q0VGE8: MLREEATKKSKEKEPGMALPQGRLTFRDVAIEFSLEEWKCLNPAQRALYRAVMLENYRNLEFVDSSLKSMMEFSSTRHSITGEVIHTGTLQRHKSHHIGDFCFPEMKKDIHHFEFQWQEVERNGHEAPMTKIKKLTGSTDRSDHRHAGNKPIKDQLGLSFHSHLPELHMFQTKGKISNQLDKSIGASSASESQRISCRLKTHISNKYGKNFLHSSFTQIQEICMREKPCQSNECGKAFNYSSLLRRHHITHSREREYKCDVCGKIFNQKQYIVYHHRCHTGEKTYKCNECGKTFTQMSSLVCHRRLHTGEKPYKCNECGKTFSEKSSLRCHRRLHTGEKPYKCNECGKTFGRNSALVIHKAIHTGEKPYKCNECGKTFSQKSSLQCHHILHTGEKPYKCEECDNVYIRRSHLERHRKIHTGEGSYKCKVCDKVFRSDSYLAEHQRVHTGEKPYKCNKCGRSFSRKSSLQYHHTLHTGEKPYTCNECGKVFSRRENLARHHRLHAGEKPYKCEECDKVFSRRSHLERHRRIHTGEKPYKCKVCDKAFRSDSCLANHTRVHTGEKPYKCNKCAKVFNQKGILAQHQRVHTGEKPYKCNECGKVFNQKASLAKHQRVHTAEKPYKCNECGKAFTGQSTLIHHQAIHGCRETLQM
UniProt P16415: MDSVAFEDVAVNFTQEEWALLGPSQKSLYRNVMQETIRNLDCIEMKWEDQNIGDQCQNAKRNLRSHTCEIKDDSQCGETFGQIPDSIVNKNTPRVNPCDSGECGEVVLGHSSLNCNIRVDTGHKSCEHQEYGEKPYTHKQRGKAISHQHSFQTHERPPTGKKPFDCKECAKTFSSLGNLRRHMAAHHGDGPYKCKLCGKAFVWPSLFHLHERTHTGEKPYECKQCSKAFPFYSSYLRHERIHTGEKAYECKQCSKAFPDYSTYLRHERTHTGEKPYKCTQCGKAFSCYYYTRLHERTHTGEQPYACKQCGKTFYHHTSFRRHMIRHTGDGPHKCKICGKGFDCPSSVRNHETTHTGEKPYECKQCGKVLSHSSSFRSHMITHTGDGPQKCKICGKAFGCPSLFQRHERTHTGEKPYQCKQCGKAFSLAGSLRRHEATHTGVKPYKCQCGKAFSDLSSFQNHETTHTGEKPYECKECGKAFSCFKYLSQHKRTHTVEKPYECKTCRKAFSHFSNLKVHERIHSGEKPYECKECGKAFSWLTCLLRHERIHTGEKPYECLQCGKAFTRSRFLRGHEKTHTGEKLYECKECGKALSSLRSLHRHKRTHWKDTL

This note sets out measurements from article PMC10298087.

No constants are given. Whether binding was seen depends on the method and setting. Binding seen in cells or lysates may run through a third protein. Here binding means that the protein was enriched with, or labelled near, the bait; the list need not be complete.

Take ZNF562 (from UniProt Q6V9R5 1-426): the binding result in assay [1] and in assay [2] was “binds” throughout.

With ZNF566 (from UniProt Q969W8 1-418), the binding entry in assay [1] and in assay [2] was “binds” throughout.

Turning to ZNF587 (from UniProt Q96SQ5 1-575), the binding result in assay [1] and in assay [2] was “binds” in each case.

For ZNF595 (from UniProt Q8IYB9 1-648), the binding result in assay [1] and in assay [2] was “binds” throughout.

Turning to ZNF627 (from UniProt Q7L945 1-461), the binding entry in assay [1] and in assay [2] was “binds” in each case.

Consider ZNF649 (from UniProt Q9BS31 1-505), for which the binding entry in assay [1] and in assay [2] was “binds” each time.

As for ZNF669 (from UniProt Q96BR6 1-464), the binding result in assay [1] and in assay [2] was “binds” each time.

In the case of ZNF670 (from UniProt Q9BS34 1-389), the binding entry in assay [1] and in assay [2] was “binds” in each case.

With ZNF680 (from UniProt Q8NEM1 1-530), the binding result in assay [1] and in assay [2] was “binds” throughout.

On to ZNF688 (from UniProt P0C7X2 1-276), for which the binding entry in assay [1] and in assay [2] was “binds” in each case.

Consider ZNF689 (from UniProt Q96CS4 1-500), for which the binding entry in assay [1] and in assay [2] was “binds” throughout.

For the substance ZNF708 (from UniProt P17019 1-563), the binding entry in assay [1] and in assay [2] was “binds” throughout.

As for ZNF724 (from UniProt A8MTY0 1-619), the binding result in assay [1] and in assay [2] was “binds” in each case.

In the case of ZNF728 (from UniProt P0DKX0 1-622), the binding entry in assay [1] and in assay [2] was “binds” throughout.

Consider ZNF736 (from UniProt B4DX44 1-427), for which the binding result in assay [1] and in assay [2] was “binds” each time.

With ZNF738 (from UniProt Q8NE65 1-375), the binding result in assay [1] and in assay [2] was “binds” each time.

For ZNF764 (from UniProt Q96H86 1-408), the binding result in assay [1] and in assay [2] was “binds” each time.

Regarding ZNF792 (from UniProt Q3KQV3 1-632), the binding entry in assay [1] and in assay [2] was “binds” in each case.

In the case of ZNF808 (from UniProt Q8N4W9 1-903), the binding entry in assay [1] and in assay [2] was “binds” in each case.

Regarding ZNF816 (from UniProt Q0VGE8 1-651), the binding result in assay [1] and in assay [2] was “binds” throughout.

ZNF823 (from UniProt P16415 1-610): the binding result in assay [1] and in assay [2] was “binds” each time.

For “transcription factor GATA1 (from UniProt P15976 1-413)”, the binding entry in assay [1] and in assay [2] was “binds” each time.
